Experimental data: the supplement of paper PMC8728848
Some of the results follow.

Experiments:
Test in all cases: glycan array binding signal (z-score within array); higher = stronger binding
Conditions in all cases: glycan notation: IUPAC condensed, linker removed
[1] = target: Neu5Ac(a2-3)Gal(b1-4)GlcNAc(b1-6)GalNAc
Outline: (§1)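 Glycan array data came from 3228 arrays in the Consortium for Functional Glycomics database, and only arrays with an available protein sequence were kept. Glycan names were put into IUPAC-condensed notation, and columns mapping to the same glycan were averaged. The binding signal is a within-array Z-score, averaged across arrays of one protein sequence run at different concentrations or buffers and across linkers. A negative Z-score can be read as non-binding.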

[2] = target: Neu5Ac(a2-3)Gal(b1-4)GlcNAc(b1-6)[Gal(b1-3)]GalNAc
Outline: as §1

[3] = target: Neu5Ac(a2-3)Gal(b1-4)GlcNAc(b1-6)[Neu5Ac(a2-3)Gal(b1-3)]GalNAc
Outline: as §1

[4] = target: Neu5Ac(a2-3)Gal(b1-4)GlcNAc6S
Outline: as §1

[5] = target: Neu5Ac(a2-3)Gal(b1-4)[Fuc(a1-3)]GlcNAc
Outline: as §1

[6] = target: Neu5Ac(a2-3)Gal(b1-4)[Fuc(a1-3)]GlcNAc(b1-2)Man
Outline: as §1

[7] = target: Neu5Ac(a2-3)Gal(b1-4)[Fuc(a1-3)]GlcNAc(b1-3)Gal
Outline: as §1

[8] = target: Neu5Ac(a2-3)Gal(b1-4)[Fuc(a1-3)]GlcNAc(b1-3)Gal(b1-4)GlcNAc
Outline: as §1

[9] = target: Neu5Ac(a2-3)Gal(b1-4)[Fuc(a1-3)]GlcNAc(b1-3)Gal(b1-4)[Fuc(a1-3)]GlcNAc(b1-3)Gal(b1-4)[Fuc(a1-3)]GlcNAc
Outline: as §1

[10] = target: Neu5Ac(a2-3)Gal(b1-4)[Fuc(a1-3)]GlcNAc(b1-3)GalNAc
Outline: as §1

[11] = target: Neu5Ac(a2-3)Gal(b1-4)[Fuc(a1-3)]GlcNAc(b1-6)[Gal(b1-3)]GalNAc
Outline: as §1

[12] = target: Neu5Ac(a2-3)Gal(b1-4)[Fuc(a1-3)]GlcNAc(b1-6)[Neu5Ac(a2-3)Gal(b1-3)]GalNAc
Outline: as §1

[13] = target: Neu5Ac(a2-3)Gal(b1-4)[Fuc(a1-3)]GlcNAc6S
Outline: as §1

[14] = target: Neu5Ac(a2-3)Gal6S(b1-4)GlcNAc
Outline: as §1

[15] = target: Neu5Ac(a2-3)Gal6S(b1-4)[Fuc(a1-3)]GlcNAc
Outline: as §1

[16] = target: Neu5Ac(a2-3)GalNAc
Outline: as §1

[17] = target: Neu5Ac(a2-3)GalNAc(b1-4)GlcNAc
Outline: as §1

[18] = target: Neu5Ac(a2-3)[GalNAc(b1-4)]Gal(b1-4)Glc
Outline: as §1

[19] = target: Neu5Ac(a2-3)[GalNAc(b1-4)]Gal(b1-4)GlcNAc
Outline: as §1

[20] = target: Neu5Ac(a2-3)[GalNAc(b1-4)]Gal(b1-4)GlcNAc(b1-3)GalNAc
Outline: as §1

[21] = target: Neu5Ac(a2-3)[Neu5Ac(a2-6)]GalNAc
Outline: as §1

[22] = target: Neu5Ac(a2-6)Gal
Outline: as §1

[23] = target: Neu5Ac(a2-6)Gal(b1-3)GlcNAc(b1-3)[Gal(b1-4)GlcNAc(b1-6)]Gal(b1-4)Glc
Outline: as §1

[24] = target: Neu5Ac(a2-6)Gal(b1-4)Glc
Outline: as §1

[25] = target: Neu5Ac(a2-6)Gal(b1-4)GlcNAc
Outline: as §1

[26] = target: Neu5Ac(a2-6)Gal(b1-4)GlcNAc(b1-2)Man
Outline: as §1

[27] = target: Neu5Ac(a2-6)Gal(b1-4)GlcNAc(b1-2)Man(a1-3)Man(b1-4)GlcNAc(b1-4)GlcNAc
Outline: as §1

[28] = target: Neu5Ac(a2-6)Gal(b1-4)GlcNAc(b1-2)Man(a1-3)[Gal(b1-4)GlcNAc(b1-2)Man(a1-6)]Man(b1-4)GlcNAc(b1-4)GlcNAc
Outline: as §1

[29] = target: Neu5Ac(a2-6)Gal(b1-4)GlcNAc(b1-2)Man(a1-3)[GlcNAc(b1-2)Man(a1-6)]Man(b1-4)GlcNAc(b1-4)GlcNAc
Outline: as §1

[30] = target: Neu5Ac(a2-6)Gal(b1-4)GlcNAc(b1-2)Man(a1-3)[GlcNAc(b1-4)][Neu5Ac(a2-6)Gal(b1-4)GlcNAc(b1-2)Man(a1-6)]Man(b1-4)GlcNAc(b1-4)GlcNAc
Outline: as §1

[31] = target: Neu5Ac(a2-6)Gal(b1-4)GlcNAc(b1-2)Man(a1-3)[Man(a1-6)]Man(b1-4)GlcNAc(b1-4)GlcNAc
Outline: as §1

B1: RobpsCRA (Robinia pseudoacacia) (protein)
chain: IKGGYWYSGSGLAVSDINPSHFTHLFCAFADLDPNTNKLTISSSNAAAFSTFTQTVRAKNPSVKTLLSIGGGGGRALAAVFANMASQASRRKSFIDSSIQLARRNNFHGLDLDWEYPSSDIDKTNFASLIREWRAAVATESSTSGTPALLLSAAVGGSDQITPLKYYPGEAIANNLDWVNVMTYDLYTSDSYPTLTQPPAPLFYPRGIFSADEGITKWIQSGVPESKLALGLPFYGFKWRLSDPNNHGLFAPATQGLGAVKYKDIVNTGGQVEFDSTYVTNYCFKGTDWYGYDDTQSISAKVAYAKQRGLFGYFAWHIEQDSNWALS
[1]
  glycan array binding signal (z-score): 0.15
[2]
  glycan array binding signal (z-score): 0.267
[3]
  glycan array binding signal (z-score): -0.478
[4]
  glycan array binding signal (z-score): -0.216
[5]
  glycan array binding signal (z-score): -0.946
[6]
  glycan array binding signal (z-score): -0.889
[7]
  glycan array binding signal (z-score): -0.054
[8]
  glycan array binding signal (z-score): 0.659
[9]
  glycan array binding signal (z-score): 0.269
[10]
  glycan array binding signal (z-score): 1.49
[11]
  glycan array binding signal (z-score): 0.26
[12]
  glycan array binding signal (z-score): 0.155
[13]
  glycan array binding signal (z-score): 0.731
[14]
  glycan array binding signal (z-score): -0.785
[15]
  glycan array binding signal (z-score): -0.829
[16]
  glycan array binding signal (z-score): -0.955
[17]
  glycan array binding signal (z-score): -0.437
[18]
  glycan array binding signal (z-score): 0.349
[19]
  glycan array binding signal (z-score): -0.008
[20]
  glycan array binding signal (z-score): 0.012
[21]
  glycan array binding signal (z-score): -0.017
[22]
  glycan array binding signal (z-score): 1.23
[23]
  glycan array binding signal (z-score): -0.187
[24]
  glycan array binding signal (z-score): -0.332
[25]
  glycan array binding signal (z-score): -0.55
[26]
  glycan array binding signal (z-score): 0.007
[27]
  glycan array binding signal (z-score): -0.468
[28]
  glycan array binding signal (z-score): 0.444
[29]
  glycan array binding signal (z-score): -0.307
[30]
  glycan array binding signal (z-score): 0.988
[31]
  glycan array binding signal (z-score): -0.608
